According to publication PMC11286954:
No constants are given. Whether binding was seen depends on the method and setting. In cells and extracts the contact can be indirect. Some entries that bind do so weakly or less than the wild type.

Protein sequences, listed by entry. Tags and fused reporters are not part of them.
UniProt Q93008: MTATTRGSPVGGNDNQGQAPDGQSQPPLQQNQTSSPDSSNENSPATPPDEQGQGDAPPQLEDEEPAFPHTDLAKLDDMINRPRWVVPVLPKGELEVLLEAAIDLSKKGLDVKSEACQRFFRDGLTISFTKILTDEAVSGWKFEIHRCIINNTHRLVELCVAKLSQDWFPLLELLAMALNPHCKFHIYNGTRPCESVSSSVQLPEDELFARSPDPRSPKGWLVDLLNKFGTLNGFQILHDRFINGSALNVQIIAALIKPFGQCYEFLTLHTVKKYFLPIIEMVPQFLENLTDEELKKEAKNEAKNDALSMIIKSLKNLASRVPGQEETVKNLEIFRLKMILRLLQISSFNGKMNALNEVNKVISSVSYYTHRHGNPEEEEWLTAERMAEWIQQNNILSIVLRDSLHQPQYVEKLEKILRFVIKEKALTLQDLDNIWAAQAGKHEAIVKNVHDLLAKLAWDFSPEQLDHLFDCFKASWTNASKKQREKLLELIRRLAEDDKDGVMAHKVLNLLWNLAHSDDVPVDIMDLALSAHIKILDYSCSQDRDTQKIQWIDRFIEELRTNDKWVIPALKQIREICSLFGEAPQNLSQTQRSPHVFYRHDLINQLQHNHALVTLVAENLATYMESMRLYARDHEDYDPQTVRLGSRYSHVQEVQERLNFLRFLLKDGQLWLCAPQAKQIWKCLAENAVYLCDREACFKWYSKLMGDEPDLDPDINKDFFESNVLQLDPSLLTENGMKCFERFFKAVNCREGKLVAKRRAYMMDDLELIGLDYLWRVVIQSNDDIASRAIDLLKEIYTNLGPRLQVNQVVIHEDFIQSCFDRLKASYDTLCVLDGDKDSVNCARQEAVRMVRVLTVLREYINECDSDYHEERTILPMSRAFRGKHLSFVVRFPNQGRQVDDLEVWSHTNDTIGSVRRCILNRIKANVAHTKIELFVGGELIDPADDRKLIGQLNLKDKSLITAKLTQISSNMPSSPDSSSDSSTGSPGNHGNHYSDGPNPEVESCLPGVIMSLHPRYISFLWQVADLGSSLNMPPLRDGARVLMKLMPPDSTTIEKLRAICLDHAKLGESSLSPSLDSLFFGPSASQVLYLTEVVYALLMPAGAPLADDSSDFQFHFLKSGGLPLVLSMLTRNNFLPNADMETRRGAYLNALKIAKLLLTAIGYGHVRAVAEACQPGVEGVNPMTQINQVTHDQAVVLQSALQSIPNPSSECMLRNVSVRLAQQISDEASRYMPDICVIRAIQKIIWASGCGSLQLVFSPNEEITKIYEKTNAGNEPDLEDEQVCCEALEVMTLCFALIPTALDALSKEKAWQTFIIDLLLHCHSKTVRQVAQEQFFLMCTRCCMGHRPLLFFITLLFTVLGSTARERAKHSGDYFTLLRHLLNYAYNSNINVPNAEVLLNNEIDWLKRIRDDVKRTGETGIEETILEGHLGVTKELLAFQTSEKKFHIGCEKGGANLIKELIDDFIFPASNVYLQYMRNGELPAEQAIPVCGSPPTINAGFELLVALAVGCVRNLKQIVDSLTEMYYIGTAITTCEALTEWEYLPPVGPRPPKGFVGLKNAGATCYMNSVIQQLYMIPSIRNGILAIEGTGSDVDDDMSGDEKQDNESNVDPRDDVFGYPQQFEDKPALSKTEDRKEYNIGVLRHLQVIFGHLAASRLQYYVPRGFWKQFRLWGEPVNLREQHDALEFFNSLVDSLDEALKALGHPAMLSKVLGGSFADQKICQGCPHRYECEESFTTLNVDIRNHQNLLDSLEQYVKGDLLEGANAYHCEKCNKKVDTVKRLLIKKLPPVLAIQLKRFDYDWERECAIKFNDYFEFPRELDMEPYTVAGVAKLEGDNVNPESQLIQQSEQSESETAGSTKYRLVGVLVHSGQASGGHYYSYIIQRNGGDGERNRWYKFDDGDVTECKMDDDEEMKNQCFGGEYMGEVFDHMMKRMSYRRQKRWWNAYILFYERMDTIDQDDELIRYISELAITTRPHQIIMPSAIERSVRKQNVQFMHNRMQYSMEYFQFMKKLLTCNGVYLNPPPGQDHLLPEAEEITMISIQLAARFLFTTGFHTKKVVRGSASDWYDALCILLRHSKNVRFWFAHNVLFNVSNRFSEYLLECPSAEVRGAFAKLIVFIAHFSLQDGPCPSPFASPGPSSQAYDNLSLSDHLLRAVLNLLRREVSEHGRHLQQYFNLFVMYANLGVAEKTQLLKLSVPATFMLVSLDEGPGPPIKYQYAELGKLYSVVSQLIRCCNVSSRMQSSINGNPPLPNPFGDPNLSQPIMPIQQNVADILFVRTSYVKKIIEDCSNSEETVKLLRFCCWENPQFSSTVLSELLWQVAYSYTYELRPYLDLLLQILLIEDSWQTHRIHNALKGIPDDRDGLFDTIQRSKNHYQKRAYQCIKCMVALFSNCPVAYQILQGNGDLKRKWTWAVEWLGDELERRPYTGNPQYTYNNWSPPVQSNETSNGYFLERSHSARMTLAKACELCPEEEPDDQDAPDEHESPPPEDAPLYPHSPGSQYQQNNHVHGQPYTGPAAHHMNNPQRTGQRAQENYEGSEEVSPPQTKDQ

Molecular target: ubiquitin-specific peptidase 9 X-linked (USP9x) (human (endogenous in NCI-H1975)) (UniProt Q93008)
Assay: co-IP; USP9x antibody on Protein A/G magnetic beads, incubated overnight with NCI-H1975 lysate; 10% of the beads used for immunoblotting; normal rabbit IgG as control

binding: binds
B1: pyrroline-5-carboxylate reductase 3 (PYCR3) (enzyme, UniProt Q53H96 1-274)
chain: MAAAEPSPRRVGFVGAGRMAGAIAQGLIRAGKVEAQHILASAPTDRNLCHFQALGCRTTHSNQEVLQSCLLVIFATKPHVLPAVLAEVAPVVTTEHILVSVAAGVSLSTLEELLPPNTRVLRVLPNLPCVVQEGAIVMARGRHVGSSETKLLQHLLEACGRCEEVPEAYVDIHTGLSGSGVAFVCAFSEALAEGAVKMGMPSSLAHRIAAQTLLGTAKMLLHEGQHPAQLRSDVCTPGGTTIYGLHALEQGGLRAATMSAVEAATCRAKELSRK
